Source: PubChem BioAssay AID2685 (National Center for Advancing Translational Sciences (NCATS), 2010)
This is one part of the list. Shown are side measurements of this screen, not its main read-out; they come without a call. Compounds called inactive in the main read-out are mostly missing here. Words in brackets tell the shape of the fitted curve; partial curves, single points and poor fits give uncertain potencies.

Assay: qHTS Assay for Lipid Storage Modulators in Drosophila S3 Cells;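 as to cell number change: cells counted by Cell Tracker Red CMTPX staining in the red channel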
Conditions: BODIPY lipid droplet fluorescence, 18-24 h; for cell number change: measured here: cell count max response, cells fed with added oleic acid
In short: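 Laser-scanning cytometry quantifies lipid droplet accumulation (500–530 nm total intensity; droplet/cell object ratio) in oleic acid-fed (400 uM added) Drosophila S3 cells treated with a concentration series. 20 uM Triacsin C defined 100% inhibition.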

[1] = measured here: lipid fluorescence (Fed channel) AC50, cells fed with added oleic acid
[2] = measured here: cell number channel AC50, cells fed with added oleic acid

Row | Structure (SMILES) | cell number change [%] | AC50 [1] | AC50 [2]
1 | Cc1occc1C(=O)N/N=C/c1cccc2ccccc12 | -2.86 | 6.51 µM [rising, single point] | 
2 | O=C(COc1ccccc1)N=C1SC2CS(=O)(=O)CC2N1c1ccccc1F (stereo not drawn) | 5.37 | 6.51 µM [falling, single point] | 
3 | CC1CCN(CCOCCOc2ccccc2Br)CC1 | -4.93 | 0.501 µM [falling, full curve, poor fit] | 
4 | CC(=O)Nc1cccc(C(=O)OC(C)C(=O)Nc2ccc(S(=O)(=O)N3CCCC3)cc2)c1 (stereo not drawn) | -20 |  | 
5 | Fc1ccc(-n2c(Cn3nnc4ccccc43)n[nH]c2=S)cc1 |  | 0.00411 µM [falling, full curve, poor fit] | 
6 | CCOC(=O)/C=C/[C@H]1CCc2cccc(C)c2O1 | -33.4 | 0.231 µM [falling, partial curve, poor fit] | 0.164 µM [falling, full curve, poor fit]
7 | Cc1cccc(Cl)c1NC(=S)NN | 6.81 | 6.51 µM [rising, single point] | 6.51 µM [rising, single point]
8 | Cc1sc(NC(=O)c2cccc(N3C(=O)CCC3=O)c2)nc1-c1ccccc1 | 34.6 | 2.91 µM [rising, full curve] | 1.84 µM [rising, partial curve, poor fit]
9 | O=C(NCCCN1CCCC1=O)c1ccc(NS(=O)(=O)c2ccccc2)cc1 | -14.7 |  | 0.13 µM [falling, full curve, poor fit]
10 | CCn1c(SCC(=O)Nc2cc(OC)ccc2OC)nc2c(c1=O)SCC2 | 19.9 |  | 0.146 µM [rising, single point]
11 | CCOc1ccccc1OCC(=O)Nc1ccccc1C(=O)NC1CC1 | 44.7 |  | 29.1 µM [rising, single point]
12 | CCn1c(SCC(=O)NC2CCCC2)nnc1-c1ccco1 | 15.8 |  | 
13 | O=C(NC(NC(=O)c1c(F)cccc1F)c1ccc([N+](=O)[O-])cc1)c1c(F)cccc1F | 223 |  | 29.1 µM [rising, partial curve]
14 | Cc1ccccc1Nc1nc(-c2sc(NC(=O)c3ccccc3)nc2C)cs1 | 70 |  | 
15 | COc1cccc(OCc2cc(/C=N/n3cncn3)ccc2OC)c1 | -7.26 | 4.11 µM [rising, single point] | 
16 | C=CCn1c(=O)/c(=C/c2cc(OC)c(OC)c(OC)c2)s/c1=C(/C#N)c1nc2ccccc2n1C | 22 | 0.58 µM [rising, single point] | 
17 | COc1ccc(CNc2cc(C)ccc2C)c(OC)c1OC |  | 0.082 µM [rising, full curve, poor fit] | 0.058 µM [rising, full curve, poor fit]
18 | COc1cccc(-c2nnc(SCC(=O)Nc3cc(C)on3)n2C)c1 |  | 6.51 µM [rising, single point] | 6.51 µM [rising, single point]
19 | O=C(NNC(=O)c1ccccc1[N+](=O)[O-])Nc1ccccc1C(F)(F)F | 53.2 | 18.4 µM [rising, single point] | 29.1 µM [rising, single point]

Of the compounds above, 5 contain an aryl methoxy group.
Row | Structure (SMILES) | cell number change [%] | AC50 [1] | AC50 [2]
10 | CCn1c(SCC(=O)Nc2cc(OC)ccc2OC)nc2c(c1=O)SCC2 | 19.9 |  | 0.146 µM [rising, single point]
15 | COc1cccc(OCc2cc(/C=N/n3cncn3)ccc2OC)c1 | -7.26 | 4.11 µM [rising, single point] | 
16 | C=CCn1c(=O)/c(=C/c2cc(OC)c(OC)c(OC)c2)s/c1=C(/C#N)c1nc2ccccc2n1C | 22 | 0.58 µM [rising, single point] | 
17 | COc1ccc(CNc2cc(C)ccc2C)c(OC)c1OC |  | 0.082 µM [rising, full curve, poor fit] | 0.058 µM [rising, full curve, poor fit]
18 | COc1cccc(-c2nnc(SCC(=O)Nc3cc(C)on3)n2C)c1 |  | 6.51 µM [rising, single point] | 6.51 µM [rising, single point]

The listing continues:

Row | Structure (SMILES) | cell number change [%] | AC50 [1] | AC50 [2]
20 | COc1ccc(CCN(C)C(=O)Cn2c(=O)oc3ccccc32)cc1OC | 20 |  | 
21 | c1ccc2c(c1)nc(N1CCOCC1)c1c3ccccc3[nH]c21 | -3.94 | 0.326 µM [rising, partial curve] | 
22 | C=CCN1C(c2ccccc2)=CS/C1=C(\C#N)c1nnc2n1CCCCC2 | -19.3 | 16.4 µM [falling, single point] | 
23 | CC[C@H](C)[C@H](NC(N)=O)C(=O)Nc1ccccc1F | -79.2 | 0.116 µM [rising, partial curve, poor fit] | 
24 | O=C(Nc1ccc(S(=O)(=O)NCc2ccccc2)cc1)c1ccccc1[N+](=O)[O-] | -2.72 | 8.2 µM [rising, partial curve] | 0.00461 µM [rising, full curve, poor fit]
25 | CCOc1ccc(CN(C)CC(=O)c2c(N)n(Cc3ccccc3)c(=O)n(CC)c2=O)cc1OC | 2.93 |  | 
26 | Cc1ccnc(NC(=O)C2COc3ccccc3O2)c1 (stereo not drawn) | -66.7 |  | 5.17 µM [falling, full curve]
27 | CCOc1cc(NC(=S)NCCCN(C)C)c(OCC)cc1NC(=O)c1cccs1 | -53.4 | 1.3 µM [falling, full curve, poor fit] | 1.46 µM [falling, partial curve, poor fit]
28 | COc1ccc(CC(=O)NC(C)c2nnc(SCC(=O)Nc3ccccc3)n2C)cc1 (stereo not drawn) | -49.7 | 4.11 µM [falling, single point] | 6.51 µM [falling, single point]
29 | N#CCSc1nccc(-c2cc(Cl)sc2Cl)n1 | 95.3 | 16.4 µM [rising, partial curve] | 29.1 µM [rising, single point]
30 | COc1cc(NC(=O)COc2cccc(C)c2C)ccc1NC(=O)c1ccco1 | 58.1 | 25.9 µM [falling, single point] | 29.1 µM [rising, single point]
31 | COCCn1c(SCC(=O)N2CCCCC2)nc2c([nH]c3ccccc32)c1=O | -16.6 |  | 
32 | CCOC(=O)c1c(C)nc2ccccc2c1-c1ccccc1 | -26 | 0.651 µM [rising, partial curve, poor fit] | 
33 | CCOc1ccc(N(CC(=O)NC(C)C)C(=O)CCC(=O)Nc2ccccn2)cc1 | -4.2 | 4.11 µM [falling, full curve, poor fit] | 
34 | O=C(NCCCN1CCCC1)C1CCN(C(=O)c2cc3sccc3n2Cc2ccc(F)cc2)CC1 | -64.8 |  | 32.6 µM [falling, single point]
35 | COc1ccc(/C=C/C(=O)O)cc1S(=O)(=O)N1CCC(C)CC1 | 25.7 |  | 
36 | Cc1ccccc1N1CCN(S(=O)(=O)C[C@]23CCC(CC2NC(=O)[C@@H](N)CCS(C)(=O)=O)C3(C)C)CC1 (stereo partly drawn) | 35.8 | 1.64 µM [rising, full curve] | 1.03 µM [rising, full curve]
37 | CC(NCC(O)COC1CCC(C(C)(C)C)CC1)c1ccccc1 (stereo not drawn) | -45.5 | 32.6 µM [falling, single point] | 29.1 µM [falling, single point]
38 | COc1cccc(NC(=S)N2CCN(c3ccccn3)CC2)c1 | 8.15 | 4.61 µM [rising, single point] | 

Row | Structure (SMILES) | cell number change [%] | AC50 [1] | AC50 [2]
39 | COc1ccc(S(=O)(=O)N2CCCC(C(=O)NCc3ccncc3)C2)cc1Cl (stereo not drawn) | -6.48 |  | 
40 | Cc1noc(C(=O)Nc2ccc(F)c(Cl)c2)c1Cl | 6.31 |  | 6.51 µM [rising, single point]
41 | CSc1nsc(SCC(=O)Nc2ccccn2)n1 | -40.2 | 18.4 µM [falling, single point] | 29.1 µM [falling, single point]
42 | CCOC(=O)CN1CC23C=CC(O2)C(C(=O)Nc2ccc(F)c(C)c2)C3C1=O (stereo not drawn) | -35.6 | 4.11 µM [falling, full curve] | 0.58 µM [falling, full curve]
43 | CC1CCN(S(=O)(=O)c2ccc3c(c2)CC(C)N3C(=O)C2CCC2)CC1 (stereo not drawn) |  | 6.51 µM [rising, single point] | 
44 | O=C(c1cnc(Cl)c(Cl)c1)N1CCN(S(=O)(=O)c2ccc3ccccc3c2)CC1 | -40.1 | 5.17 µM [falling, single point] | 32.6 µM [falling, single point]
45 | CCNC(=S)N/N=C(\C)c1ccc2ccccc2c1 | 26.5 |  | 0.731 µM [rising, full curve, poor fit]
46 | O=C(NCCC1CCCCN1S(=O)(=O)c1ccc(F)cc1)C(=O)NC1CCCC1 (stereo not drawn) | -36 |  | 16.4 µM [falling, single point]
47 | CCOC(=O)C1=C(CCc2ccccc2)NC(=O)NC1c1cccc([N+](=O)[O-])c1 (stereo not drawn) | -0.599 | 0.116 µM [falling, full curve, poor fit] | 
48 | CCCn1c2ccc(/C(C)=N\O)cc2c2cc(/C(C)=N/O)ccc21 | 16.7 | 0.366 µM [rising, full curve, poor fit] | 1.3 µM [rising, partial curve, poor fit]
49 | CC1CCN(C(=O)CN(c2ccc(Cl)c(C(F)(F)F)c2)S(C)(=O)=O)CC1 |  | 6.51 µM [rising, single point] | 
50 | O=C(COc1ccc(Cl)cc1)NCc1nnc(SCC(=O)c2ccccc2)o1 | 14.5 |  | 0.291 µM [rising, full curve, poor fit]
51 | O=C(Nc1ccnc(-c2ccncc2)n1)c1ccccc1Cl | 21.3 | 5.8 µM [rising, full curve] | 2.31 µM [rising, single point]
52 | CC(C)(C)c1ccc(OC(=O)N2CCOCC2)cc1 | -0.708 |  | 
53 | CCCCN(Cc1ccccc1)c1ncnc2nc[nH]c12 | -36.2 | 18.4 µM [falling, single point] | 18.4 µM [falling, partial curve]
54 | CC(C)(C)C1CCc2onc(C(=O)Nc3cnn(Cc4ccc(F)cc4)c3)c2C1 (stereo not drawn) | -82.5 |  | 3.26 µM [rising, partial curve]
55 | CCOC(=O)c1cc(NC(=O)/C=C\C(=O)O)ccc1Cl | 52 | 0.103 µM [falling, full curve, poor fit] | 0.103 µM [falling, full curve, poor fit]
56 | C/C(=N\NC(=O)c1csc2ccccc12)c1ccc(O)cc1 | 18 | 29.1 µM [rising, single point] | 
